According to paper PMC5444744, “Interaction between granulin A and enolase 1 attenuates the migration and invasion of human hepatoma cells” (Oncotarget, 2017):
These are yes or no findings as the source states them, for the method shown. In cells and extracts the contact can be indirect. Some entries that bind do so weakly or less than the wild type.

Amino acid sequences for entries named in this document (tags omitted). Residues count along the entry.
UniProt P28799, residues 281-336: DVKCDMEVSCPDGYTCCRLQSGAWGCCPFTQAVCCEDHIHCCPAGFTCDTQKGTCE
UniProt P06733: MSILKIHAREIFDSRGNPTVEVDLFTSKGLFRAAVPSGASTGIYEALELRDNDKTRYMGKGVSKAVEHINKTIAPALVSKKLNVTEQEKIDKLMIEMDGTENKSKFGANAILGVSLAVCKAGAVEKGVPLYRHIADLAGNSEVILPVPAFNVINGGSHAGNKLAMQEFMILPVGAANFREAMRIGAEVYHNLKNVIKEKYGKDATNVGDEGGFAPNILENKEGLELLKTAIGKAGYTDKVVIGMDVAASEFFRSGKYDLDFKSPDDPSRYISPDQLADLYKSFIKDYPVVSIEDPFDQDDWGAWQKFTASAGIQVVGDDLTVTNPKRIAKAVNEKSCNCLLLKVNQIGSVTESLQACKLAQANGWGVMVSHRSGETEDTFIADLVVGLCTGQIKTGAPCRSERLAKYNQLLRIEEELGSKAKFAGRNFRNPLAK

Molecular target: Granulin A (His-GRN A) (human) (UniProt P28799)
Test: pull-down; His-GRN A (100 μg) held on cobalt chelate resin (Pierce polyHis pull-down kit), incubated with crude HepG-2 lysate 4 h at 4°C, 20 mM imidazole, washed with TBS, eluted with 290 mM imidazole; SDS-PAGE with Coomassie, band identified by LC-MS/MS, and Western blot with anti-ENO1; only the target purified

binding: binds
Substance: α-enolase (ENO1), endogenous in HepG-2 cells (from UniProt P06733 1-434) (enzyme)
